Experimental findings from publication PMC3660581 are described below.

Amino acid sequences for entries named in this document (tags omitted). Residues count along the entry.
UniProt P25705, residues 44-553: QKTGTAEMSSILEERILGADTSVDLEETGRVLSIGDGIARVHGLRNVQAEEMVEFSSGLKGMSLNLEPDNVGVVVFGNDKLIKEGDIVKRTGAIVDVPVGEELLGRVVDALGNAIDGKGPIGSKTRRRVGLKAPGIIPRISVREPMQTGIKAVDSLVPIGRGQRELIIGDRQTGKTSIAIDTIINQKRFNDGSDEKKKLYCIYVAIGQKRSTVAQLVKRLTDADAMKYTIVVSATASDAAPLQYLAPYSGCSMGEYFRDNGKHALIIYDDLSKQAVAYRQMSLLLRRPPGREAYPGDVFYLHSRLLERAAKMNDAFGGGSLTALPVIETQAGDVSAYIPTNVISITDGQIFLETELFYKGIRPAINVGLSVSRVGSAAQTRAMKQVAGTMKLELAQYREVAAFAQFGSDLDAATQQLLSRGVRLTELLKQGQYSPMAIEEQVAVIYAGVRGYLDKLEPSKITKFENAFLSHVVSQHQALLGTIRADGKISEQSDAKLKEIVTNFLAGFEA

These are yes or no findings as the source states them, for the method shown. In cells and extracts the contact can be indirect.

Experiment [1] has as its target T1, apolipoprotein O-like protein (APOOL) (human (endogenous in HeLa)) (UniProt Q6UXV4).
T1 sequence: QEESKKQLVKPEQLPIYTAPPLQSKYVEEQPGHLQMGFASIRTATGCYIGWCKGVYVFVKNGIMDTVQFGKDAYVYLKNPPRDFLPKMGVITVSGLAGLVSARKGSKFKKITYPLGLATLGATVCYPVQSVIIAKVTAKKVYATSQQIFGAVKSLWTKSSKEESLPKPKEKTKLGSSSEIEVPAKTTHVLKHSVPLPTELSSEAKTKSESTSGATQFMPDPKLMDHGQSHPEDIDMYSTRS
Description: co-IP; endogenous proteins; HeLa mitochondria (250 µg) solubilized with digitonin (detergent:protein 4:1) at 4°C; 1 µg antibody against APOOL or Mitofilin, or preimmune serum, protein A beads; washed with PBS, 0.01% digitonin; eluted with 0.1 M citric acid; western blot. (In general: A western blot detects proteins with antibodies after separation by electrophoresis.)

Experiment [2] concerns the target T2, Mitofilin (human (endogenous in HeLa)) (UniProt Q16891).
T2 sequence: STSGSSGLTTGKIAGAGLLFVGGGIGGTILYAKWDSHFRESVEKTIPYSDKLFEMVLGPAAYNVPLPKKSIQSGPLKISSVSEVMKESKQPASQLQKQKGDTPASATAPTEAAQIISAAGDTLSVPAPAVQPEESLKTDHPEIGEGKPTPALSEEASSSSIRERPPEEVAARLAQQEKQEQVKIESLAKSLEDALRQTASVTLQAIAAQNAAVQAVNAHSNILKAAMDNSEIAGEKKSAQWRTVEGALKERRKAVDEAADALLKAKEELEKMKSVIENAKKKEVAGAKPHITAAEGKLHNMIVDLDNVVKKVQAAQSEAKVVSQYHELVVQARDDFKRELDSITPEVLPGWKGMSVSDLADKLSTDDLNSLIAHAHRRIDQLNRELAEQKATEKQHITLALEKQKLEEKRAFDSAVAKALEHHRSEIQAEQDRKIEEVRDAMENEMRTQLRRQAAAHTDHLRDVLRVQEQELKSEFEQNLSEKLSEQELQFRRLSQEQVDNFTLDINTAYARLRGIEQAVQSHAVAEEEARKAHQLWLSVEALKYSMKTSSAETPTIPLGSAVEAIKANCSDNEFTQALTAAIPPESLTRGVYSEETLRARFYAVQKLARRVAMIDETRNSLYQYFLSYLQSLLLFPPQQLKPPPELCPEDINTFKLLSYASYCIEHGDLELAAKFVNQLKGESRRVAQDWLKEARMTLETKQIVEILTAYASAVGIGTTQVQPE
Described as above.

With “subunit F1α of the F1FO ATP synthase (from UniProt P25705 44-553)”, the binding result in experiment [1] and in experiment [2] was “no binding” each time.
